From article PMC1266395 come the findings set out here.

Protein sequences, listed by entry. Tags and fused reporters are not part of them.
UniProt P05556: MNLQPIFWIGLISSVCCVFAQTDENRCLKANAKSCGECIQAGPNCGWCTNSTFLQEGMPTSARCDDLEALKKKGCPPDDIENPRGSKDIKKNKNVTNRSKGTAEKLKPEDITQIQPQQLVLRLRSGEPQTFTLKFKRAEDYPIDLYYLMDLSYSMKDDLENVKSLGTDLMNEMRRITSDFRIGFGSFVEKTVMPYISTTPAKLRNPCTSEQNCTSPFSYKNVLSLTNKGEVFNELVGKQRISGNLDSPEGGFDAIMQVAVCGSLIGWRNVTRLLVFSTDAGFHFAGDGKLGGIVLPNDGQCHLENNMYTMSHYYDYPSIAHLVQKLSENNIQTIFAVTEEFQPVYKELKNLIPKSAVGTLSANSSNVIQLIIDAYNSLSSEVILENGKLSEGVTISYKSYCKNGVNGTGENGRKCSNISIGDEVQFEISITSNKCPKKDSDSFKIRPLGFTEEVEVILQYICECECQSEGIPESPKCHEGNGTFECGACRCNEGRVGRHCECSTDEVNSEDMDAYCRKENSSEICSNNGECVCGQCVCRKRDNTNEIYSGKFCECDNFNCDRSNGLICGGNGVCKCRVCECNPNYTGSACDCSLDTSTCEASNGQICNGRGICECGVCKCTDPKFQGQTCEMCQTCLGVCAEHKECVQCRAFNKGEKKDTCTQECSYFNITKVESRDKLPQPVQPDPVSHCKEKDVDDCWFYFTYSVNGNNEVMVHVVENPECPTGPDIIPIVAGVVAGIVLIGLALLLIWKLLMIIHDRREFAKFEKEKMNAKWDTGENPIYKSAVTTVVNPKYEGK
UniProt Q05397: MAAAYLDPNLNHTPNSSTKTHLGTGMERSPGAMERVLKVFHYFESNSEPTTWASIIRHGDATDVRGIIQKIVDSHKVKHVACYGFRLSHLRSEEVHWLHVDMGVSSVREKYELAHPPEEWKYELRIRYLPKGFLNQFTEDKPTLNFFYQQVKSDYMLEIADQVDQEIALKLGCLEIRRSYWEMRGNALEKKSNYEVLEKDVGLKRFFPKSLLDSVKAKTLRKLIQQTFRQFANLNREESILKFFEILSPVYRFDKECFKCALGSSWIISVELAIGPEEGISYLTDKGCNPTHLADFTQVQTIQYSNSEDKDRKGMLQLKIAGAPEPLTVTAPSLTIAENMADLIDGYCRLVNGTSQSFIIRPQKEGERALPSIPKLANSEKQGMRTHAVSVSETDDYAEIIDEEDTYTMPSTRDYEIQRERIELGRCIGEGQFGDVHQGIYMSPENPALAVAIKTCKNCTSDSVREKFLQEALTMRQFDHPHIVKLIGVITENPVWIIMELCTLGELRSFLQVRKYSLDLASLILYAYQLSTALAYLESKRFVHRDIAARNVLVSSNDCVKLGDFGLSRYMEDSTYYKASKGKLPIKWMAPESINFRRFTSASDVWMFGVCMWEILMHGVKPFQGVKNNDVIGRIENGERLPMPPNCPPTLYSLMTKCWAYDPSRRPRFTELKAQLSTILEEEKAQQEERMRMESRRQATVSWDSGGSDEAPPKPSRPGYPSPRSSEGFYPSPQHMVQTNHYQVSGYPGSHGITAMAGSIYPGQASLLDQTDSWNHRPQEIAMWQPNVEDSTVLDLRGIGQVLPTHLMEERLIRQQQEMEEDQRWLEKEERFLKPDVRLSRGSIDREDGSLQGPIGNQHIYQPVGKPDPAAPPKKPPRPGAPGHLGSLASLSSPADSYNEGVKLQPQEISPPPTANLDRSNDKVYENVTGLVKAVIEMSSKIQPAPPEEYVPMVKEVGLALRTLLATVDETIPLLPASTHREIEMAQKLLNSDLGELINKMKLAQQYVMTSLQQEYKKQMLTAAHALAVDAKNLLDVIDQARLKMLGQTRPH

The target in this assay is β1 integrin subunit (human (endogenous in AsPC-1, BxPC-3, Capan-2)) (UniProt P05556). The assay can be described thus: co-IP; β1 integrin immunoprecipitated with anti-β1 (P5D2) from total lysates (750 μg protein) of AsPC-1, BxPC-3 and Capan-2 cells plated on Coll IV or 3 % BSA, with or without 10 ng/ml IL-1α, 0.5 μg/ml anti-β1 integrin antibody or FAK siRNA; 4°C overnight; lysis buffer 50 mM Tris-HCl pH 7.5, 150 mM NaCl, 1 % Triton X-100, 0.1 % SDS, 0.1 % Nonidet P-40; blot with anti-FAK.

Results are given in words; binding and its absence hold for the method and conditions named. In cells and extracts the contact can be indirect. Some results given as binding are weak or reduced against the parent protein; the word gives no strength.

With “focal adhesion kinase (from UniProt Q05397 1-1052)”, the binding entry was “binds”.
